Results on one compound are retold here after publication PMC9279437, “Cytopathic SARS-CoV-2 screening on VERO-E6 cells in a large-scale repurposing effort” (Scientific Data, 2022).

Data set [1] relates to SARS-CoV-2.
Data set [2] deals with SARS-CoV-2. The data set is described as follows: microbe, parasite or virus in culture. To be noted: Severe acute respiratory syndrome coronavirus 2, Vero C1008, 96 h.

Counter-ions that a name gives are not always drawn. Like-named read-outs stand apart in the source and are kept apart here.

In the case of `CCN(CC)CCOc1ccc(C(=C(Cl)c2ccccc2)c2ccccc2)cc1` [Clomiphene citrate], in data set [1], the IC50 was 13.6 µM and the “SI (CC50/IC50)” value is 2.42. Besides, in data set [2], the IC50 was below 20 µM.
